Measurements as given in publication PMC2965115.
Results are given in words; binding and its absence hold for the method and conditions named. For part of these data: Binding seen in cells or lysates may run through a third protein. For part of these data: Where a sequence is shown, tags or fusion partners need not be part of it. Some results given as binding are weak or reduced against the parent protein; the word gives no strength. Each block holds one binder with its values, some of them ahead of it.

Sequences of proteins named here, by UniProt entry; tags and fusion partners are left off.
UniProt G5EBZ4: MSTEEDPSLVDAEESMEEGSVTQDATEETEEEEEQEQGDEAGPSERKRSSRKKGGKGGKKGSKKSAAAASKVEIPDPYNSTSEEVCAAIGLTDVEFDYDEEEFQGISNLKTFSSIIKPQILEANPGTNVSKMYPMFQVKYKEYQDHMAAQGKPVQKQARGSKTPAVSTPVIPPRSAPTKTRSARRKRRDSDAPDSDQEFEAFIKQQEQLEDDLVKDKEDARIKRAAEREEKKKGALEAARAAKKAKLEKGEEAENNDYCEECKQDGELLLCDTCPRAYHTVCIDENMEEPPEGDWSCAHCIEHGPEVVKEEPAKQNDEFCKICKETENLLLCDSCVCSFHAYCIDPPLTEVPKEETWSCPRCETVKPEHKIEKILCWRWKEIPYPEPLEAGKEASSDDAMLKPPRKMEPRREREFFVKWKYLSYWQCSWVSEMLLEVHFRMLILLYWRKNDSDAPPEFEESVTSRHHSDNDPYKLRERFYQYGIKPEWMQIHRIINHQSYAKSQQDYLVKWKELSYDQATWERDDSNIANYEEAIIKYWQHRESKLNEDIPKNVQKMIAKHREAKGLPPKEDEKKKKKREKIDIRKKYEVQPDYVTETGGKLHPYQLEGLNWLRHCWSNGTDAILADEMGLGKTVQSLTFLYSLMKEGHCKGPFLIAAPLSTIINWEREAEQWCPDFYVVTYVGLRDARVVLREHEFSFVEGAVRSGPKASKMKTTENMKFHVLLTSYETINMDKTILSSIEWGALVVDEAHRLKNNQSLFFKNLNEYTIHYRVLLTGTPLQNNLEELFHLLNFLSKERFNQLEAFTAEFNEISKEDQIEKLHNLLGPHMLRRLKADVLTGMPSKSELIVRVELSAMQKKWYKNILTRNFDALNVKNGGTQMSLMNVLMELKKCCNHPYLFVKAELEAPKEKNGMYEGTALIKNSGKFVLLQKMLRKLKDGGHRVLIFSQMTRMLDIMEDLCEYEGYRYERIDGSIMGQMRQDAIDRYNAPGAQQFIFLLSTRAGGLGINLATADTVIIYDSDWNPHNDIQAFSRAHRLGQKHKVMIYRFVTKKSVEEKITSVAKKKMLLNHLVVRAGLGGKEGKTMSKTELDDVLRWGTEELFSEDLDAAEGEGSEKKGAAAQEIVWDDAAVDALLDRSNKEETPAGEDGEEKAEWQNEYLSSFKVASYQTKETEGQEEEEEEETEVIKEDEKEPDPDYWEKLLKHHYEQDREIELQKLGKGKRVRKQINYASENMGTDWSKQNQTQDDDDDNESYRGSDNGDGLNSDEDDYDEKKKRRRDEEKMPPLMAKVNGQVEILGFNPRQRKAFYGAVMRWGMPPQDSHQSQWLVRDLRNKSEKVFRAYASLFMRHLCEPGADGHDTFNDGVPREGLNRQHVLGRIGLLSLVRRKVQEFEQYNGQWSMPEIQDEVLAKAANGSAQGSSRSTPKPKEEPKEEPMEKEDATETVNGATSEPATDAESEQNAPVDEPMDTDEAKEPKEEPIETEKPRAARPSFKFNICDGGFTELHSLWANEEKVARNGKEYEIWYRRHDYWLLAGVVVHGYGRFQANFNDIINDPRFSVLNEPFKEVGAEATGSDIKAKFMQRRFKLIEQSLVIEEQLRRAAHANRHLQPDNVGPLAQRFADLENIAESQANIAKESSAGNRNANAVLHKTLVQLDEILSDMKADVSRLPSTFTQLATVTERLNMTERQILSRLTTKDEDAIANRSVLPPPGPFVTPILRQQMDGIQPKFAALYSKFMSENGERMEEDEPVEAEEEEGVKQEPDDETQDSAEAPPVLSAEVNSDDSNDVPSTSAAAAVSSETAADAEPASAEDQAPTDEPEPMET

Columns and labels:
[1] = target: LET-418 (C. elegans (endogenous in mixed-stage worms)) (UniProt G5EBZ4); test: SEC; fractionation of protein extracts from lin-40::gfp mixed-stage worms by Superdex 200 gel filtration; fractions analysed by Western blot
[2] = target: LET-418 (C. elegans (endogenous in mixed-stage worms)) (UniProt G5EBZ4); test: co-IP; approximatively 1 mg of protein extract from mixed-stage worms with 1 µg of antibodies per reaction; anti-AFP mAb 3E6 for GFP-tagged proteins; immunoprecipitates analysed by Western blot
[3] = target: T1, MEP-1 (C. elegans (endogenous in mixed-stage worms)), Q21502; test: as above; conditions: remark: other sources report otherwise
T1 chain: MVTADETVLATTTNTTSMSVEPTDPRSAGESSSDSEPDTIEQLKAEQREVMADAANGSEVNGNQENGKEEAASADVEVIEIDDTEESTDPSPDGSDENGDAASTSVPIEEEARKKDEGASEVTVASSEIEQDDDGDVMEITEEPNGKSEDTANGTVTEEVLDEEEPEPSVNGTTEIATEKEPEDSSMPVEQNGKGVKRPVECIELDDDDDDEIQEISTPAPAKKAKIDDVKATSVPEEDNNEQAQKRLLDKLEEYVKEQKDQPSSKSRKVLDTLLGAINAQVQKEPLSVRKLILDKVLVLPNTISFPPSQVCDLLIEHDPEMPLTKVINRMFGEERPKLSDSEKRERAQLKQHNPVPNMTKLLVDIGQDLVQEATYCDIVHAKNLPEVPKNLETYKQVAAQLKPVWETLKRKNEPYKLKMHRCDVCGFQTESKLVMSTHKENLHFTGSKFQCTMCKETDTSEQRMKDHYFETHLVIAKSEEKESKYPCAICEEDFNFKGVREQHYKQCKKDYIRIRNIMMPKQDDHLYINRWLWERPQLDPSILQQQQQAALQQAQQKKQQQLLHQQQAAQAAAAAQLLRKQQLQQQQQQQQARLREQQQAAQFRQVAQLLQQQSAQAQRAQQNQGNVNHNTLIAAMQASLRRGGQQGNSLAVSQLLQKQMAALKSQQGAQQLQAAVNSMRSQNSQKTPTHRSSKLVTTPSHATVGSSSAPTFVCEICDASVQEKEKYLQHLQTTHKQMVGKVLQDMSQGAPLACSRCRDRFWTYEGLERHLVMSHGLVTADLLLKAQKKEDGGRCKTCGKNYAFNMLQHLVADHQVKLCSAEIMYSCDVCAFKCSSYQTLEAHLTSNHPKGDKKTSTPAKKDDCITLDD

- binding [1]: binds
B1: MEP-1 (protein, UniProt Q21502 1-870)
chain: MVTADETVLATTTNTTSMSVEPTDPRSAGESSSDSEPDTIEQLKAEQREVMADAANGSEVNGNQENGKEEAASADVEVIEIDDTEESTDPSPDGSDENGDAASTSVPIEEEARKKDEGASEVTVASSEIEQDDDGDVMEITEEPNGKSEDTANGTVTEEVLDEEEPEPSVNGTTEIATEKEPEDSSMPVEQNGKGVKRPVECIELDDDDDDEIQEISTPAPAKKAKIDDVKATSVPEEDNNEQAQKRLLDKLEEYVKEQKDQPSSKSRKVLDTLLGAINAQVQKEPLSVRKLILDKVLVLPNTISFPPSQVCDLLIEHDPEMPLTKVINRMFGEERPKLSDSEKRERAQLKQHNPVPNMTKLLVDIGQDLVQEATYCDIVHAKNLPEVPKNLETYKQVAAQLKPVWETLKRKNEPYKLKMHRCDVCGFQTESKLVMSTHKENLHFTGSKFQCTMCKETDTSEQRMKDHYFETHLVIAKSEEKESKYPCAICEEDFNFKGVREQHYKQCKKDYIRIRNIMMPKQDDHLYINRWLWERPQLDPSILQQQQQAALQQAQQKKQQQLLHQQQAAQAAAAAQLLRKQQLQQQQQQQQARLREQQQAAQFRQVAQLLQQQSAQAQRAQQNQGNVNHNTLIAAMQASLRRGGQQGNSLAVSQLLQKQMAALKSQQGAQQLQAAVNSMRSQNSQKTPTHRSSKLVTTPSHATVGSSSAPTFVCEICDASVQEKEKYLQHLQTTHKQMVGKVLQDMSQGAPLACSRCRDRFWTYEGLERHLVMSHGLVTADLLLKAQKKEDGGRCKTCGKNYAFNMLQHLVADHQVKLCSAEIMYSCDVCAFKCSSYQTLEAHLTSNHPKGDKKTSTPAKKDDCITLDD

- binding [2]: no binding
B2: HDA-2 (protein, UniProt Q09440 1-507)
chain: MSSDKFKLDTLFDDNDEIIEPDGADVKKRNVAYYYHKDVGHFHYGQLHPMKPQRLVVCNDLVVSYEMPKYMTVVESPKLDAADISVFHTEDYVNFLQTVTPKLGLTMPDDVLRQFNIGEDCPIFAGLWDYCTLYAGGSVEGARRLNHKMNDIVINWPGGLHHAKKSEASGFCYVNDIVLGILELLKYHKRVLYIDIDIHHGDGVQEAFNNSDRVMTVSFHRFGQYFPGSGSIMDKGVGPGKYFAINVPLMAAIRDEPYLKLFESVISGVEENFNPEAIVLQCGSDSLCEDRLGQFALSFNAHARAVKYVKSLGKPLMVLGGGGYTLRNVARCWALETGVILGLRMDDEIPGTSLYSHYFTPRLLRPNLVPKMNDANSAAYLASIEKETLACLRMIRGAPSVQMQNIVGIRLDEIEQIEENERLQKSSKSSIEYEVGKVSEKMEEECFVEEDSKPPSFPPGQDPRRIGQYWGYDRSGLAPPRSHSDVIEEAKYEDRDRRKDLNIPGIP

- binding [3]: no binding
B3: LIN-53, P90916 1-417 (protein)
chain: MATLEDGTSEDRVANDEYKIWKKNTPFLYDLVMTHALEWPSLSVQWLPDVAKDNSDHTIHRLILGTHTSDEQNHLLISKICMPTDDAQFDASRYDTERSEYGGFGAVNGKVEPDIRINHEGEVNRARYMPQKSNIIATKSPHADVYIFDYLKHSAVPRDNTFNPLIRLKGHTKEGYGLSWNPNKEGLILSASDDQTVCHWDINANQNVAGELQAKDVFKGHESVVEDVAWHVLHDGVFGSVGDDKKLLIWDVRTSTPGHCIDAHSAEVNCLAFNPYSEFILATGSADKTVALWDLRNLRMKLHSFESHRDEIFQVQWSPHNETILASSGTDKRLHVWDLSKIGEDQSAEDAEDGPPELLFIHGGHTAKISDFSWNPNEPWVVCSVSEDNILQVWQMADNIYNEVDEETPADVVERQQ
